{
  "sequences": {"note": "Amino acid sequences for entries named in this document (tags omitted). A change or cut given only in a name is not applied to a line headed by its entry.", "UniProt Q93009": "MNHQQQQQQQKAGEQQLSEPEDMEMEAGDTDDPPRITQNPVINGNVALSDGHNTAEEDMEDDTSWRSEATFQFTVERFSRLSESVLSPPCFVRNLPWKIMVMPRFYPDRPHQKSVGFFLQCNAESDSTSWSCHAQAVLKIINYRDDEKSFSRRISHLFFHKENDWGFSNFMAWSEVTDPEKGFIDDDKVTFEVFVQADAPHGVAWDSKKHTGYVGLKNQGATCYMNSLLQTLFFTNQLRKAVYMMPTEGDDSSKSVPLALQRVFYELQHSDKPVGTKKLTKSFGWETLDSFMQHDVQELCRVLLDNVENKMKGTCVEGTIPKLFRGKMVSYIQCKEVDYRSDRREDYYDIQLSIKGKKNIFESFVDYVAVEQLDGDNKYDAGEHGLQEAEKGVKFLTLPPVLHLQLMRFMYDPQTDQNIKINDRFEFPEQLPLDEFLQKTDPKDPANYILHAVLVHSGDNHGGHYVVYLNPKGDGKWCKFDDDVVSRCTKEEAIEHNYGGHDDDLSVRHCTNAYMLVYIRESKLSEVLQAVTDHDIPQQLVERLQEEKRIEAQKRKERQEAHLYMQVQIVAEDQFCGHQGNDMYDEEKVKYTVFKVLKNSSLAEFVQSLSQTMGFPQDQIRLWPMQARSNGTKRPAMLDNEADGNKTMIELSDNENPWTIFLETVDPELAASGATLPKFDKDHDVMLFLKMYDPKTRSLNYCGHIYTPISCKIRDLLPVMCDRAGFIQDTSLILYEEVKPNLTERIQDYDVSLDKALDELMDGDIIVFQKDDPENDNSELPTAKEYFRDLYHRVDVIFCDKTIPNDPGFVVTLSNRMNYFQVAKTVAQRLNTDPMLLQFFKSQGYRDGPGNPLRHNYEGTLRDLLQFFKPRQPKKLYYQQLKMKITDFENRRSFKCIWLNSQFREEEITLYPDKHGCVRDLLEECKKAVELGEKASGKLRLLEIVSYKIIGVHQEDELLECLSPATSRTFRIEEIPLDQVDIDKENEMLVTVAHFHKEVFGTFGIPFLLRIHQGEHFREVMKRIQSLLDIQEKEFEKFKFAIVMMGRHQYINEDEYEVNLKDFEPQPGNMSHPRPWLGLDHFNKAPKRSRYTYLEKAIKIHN", "UniProt Q2HR73": "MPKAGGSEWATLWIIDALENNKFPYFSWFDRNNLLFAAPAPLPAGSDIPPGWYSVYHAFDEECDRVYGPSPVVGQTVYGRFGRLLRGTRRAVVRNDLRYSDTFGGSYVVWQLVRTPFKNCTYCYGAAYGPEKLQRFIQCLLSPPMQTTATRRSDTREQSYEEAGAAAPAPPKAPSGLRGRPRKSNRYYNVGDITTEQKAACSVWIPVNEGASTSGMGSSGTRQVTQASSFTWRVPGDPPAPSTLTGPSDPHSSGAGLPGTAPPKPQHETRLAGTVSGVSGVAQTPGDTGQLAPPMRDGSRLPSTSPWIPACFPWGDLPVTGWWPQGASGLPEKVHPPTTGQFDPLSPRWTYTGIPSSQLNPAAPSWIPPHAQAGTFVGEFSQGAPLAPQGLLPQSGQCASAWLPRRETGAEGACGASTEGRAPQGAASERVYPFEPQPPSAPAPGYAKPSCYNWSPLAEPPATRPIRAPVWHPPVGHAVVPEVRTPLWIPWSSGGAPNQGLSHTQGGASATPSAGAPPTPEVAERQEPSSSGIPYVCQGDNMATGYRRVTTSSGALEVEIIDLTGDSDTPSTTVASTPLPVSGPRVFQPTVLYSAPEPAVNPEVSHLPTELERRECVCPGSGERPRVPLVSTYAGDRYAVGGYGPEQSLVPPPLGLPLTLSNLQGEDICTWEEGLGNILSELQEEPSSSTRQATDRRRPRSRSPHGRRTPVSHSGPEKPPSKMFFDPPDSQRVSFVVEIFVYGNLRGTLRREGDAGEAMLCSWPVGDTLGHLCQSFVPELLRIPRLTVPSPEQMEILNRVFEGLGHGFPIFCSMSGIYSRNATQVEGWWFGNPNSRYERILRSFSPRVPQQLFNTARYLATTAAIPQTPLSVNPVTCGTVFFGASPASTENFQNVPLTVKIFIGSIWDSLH"},
  "source": "patent US20130330358A1",
  "about": "“CRYSTAL STRUCTURE AND PEPTIDE INHIBITORS OF HAUSP DEUBIQUITINASE” (priority 2011, published 2013)",
  "key": {"[1]": {"biological_target": "HAUSP^62-560 (TRAF-Catalytic-domain) (human) (UniProt Q93009)"}, "[2]": {"biological_target": "HAUSP^62-560 (TRAF-Catalytic-domain) (human) (UniProt Q93009)", "assay": "NMR chemical shift perturbation"}},
  "note": "Where two headings read alike, the source gives them in different places. These are yes or no findings as the source states them, for the method shown. Some results given as binding are weak or reduced against the parent protein; the word gives no strength.",
  "data": [
    {"substance": "vIRF4^153-256 (from UniProt Q2HR73 153-256)", "values": [
      {"measurement": "binding", "setting": "[1]", "value": "binds"},
      {"measurement": "binding", "setting": "[2]", "value": "binds"}
    ]}
  ]
}
